Measurements reported in PubChem BioAssay AID1053208 (Peter MacCallum Cancer Centre, 2014)
Aim: 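Find knock-downs that sensitise mouse osteosarcoma cells to doxorubicin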 (primary screen). Cell system: mouse osteosarcoma cells, early-passage culture from an engineered mouse model of fibroblastic bone tumour. Reagent: siRNA pool against mouse genes, 40 nM. Time to read-out: about 120 h (48 h before drug, then 72 h with drug). Treatment: doxorubicin 100 nM for 72 h, roughly 30-40% inhibitory dose. Detection: 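Viability read as ATP luminescence after 72 h of 100 nM doxorubicin or none, duplicate wells averaged, scaled to non-targeting siRNA, then expressed as robust z-scores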. Reading the numbers: viability z-score with doxorubicin and doxorubicin viability vs non-targeting: higher = more viable cells under doxorubicin; viability z-score without drug: higher = more viable cells with knock-down alone; z-score of drug to no-drug ratio: higher = less drug sensitisation by knock-down. Active means: 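a pool counts as active when its viability z-score with doxorubicin is -2 or below and its z-score without drug lies between -2 and 2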.
Here is an unselected part of about 17,000 reagents. 788 of all reagents (4.7%) count as active. 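Calls rest on z-score classes alone; an extra cut-off of viability at most 70% of control was not applied to them.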 A reagent listed more than once was tested more than once; the source does not tell the runs apart.

| gene knocked down | combined z-score class | viability z-score with doxorubicin | viability z-score without drug | z-score of drug to no-drug ratio | doxorubicin viability vs non-targeting | Call |
| --- | --- | --- | --- | --- | --- | --- |
| Msl3l2 (GeneID 73390) | high cell count without drug only | 0.45 | 2.19 | -0.79 | 0.98 | inactive |
| Vdac1 (GeneID 22333) | no change with or without drug | -0.22 | -0.84 | 0.45 | 0.92 | inactive |
| Sult1c1 (GeneID 20888) | no change with or without drug | -0.22 | -1.01 | 0.56 | 0.92 | inactive |
| Lrrtm1 (GeneID 74342) | no change with or without drug | -0.11 | -0.34 | 0.22 | 0.93 | inactive |
| Eml4 (GeneID 78798) | no change with or without drug | 1.35 | 1.69 | 0.34 | 1.06 | inactive |
| Arrdc1 (GeneID 215705) | no change with or without drug | -0.9 | 0.34 | -1.01 | 0.86 | inactive |
| Slc39a10 (GeneID 227059) | no change with or without drug | -0.45 | 0 | -0.34 | 0.9 | inactive |
| Spidr (GeneID 224008) | no change with or without drug | -0.11 | 0.34 | -0.22 | 0.93 | inactive |
| Zfp438 (GeneID 240186) | no change with or without drug | 1.12 | 0.51 | 0.9 | 1.04 | inactive |
| Ext1 (GeneID 14042) | no change with or without drug | -0.79 | 0.84 | -1.24 | 0.87 | inactive |
| Lhx2 (GeneID 16870) | no change with or without drug | -1.12 | 0.84 | -1.57 | 0.84 | inactive |
| Vmn1r59 (GeneID 404284) | no change with or without drug | -0.67 | -0.34 | -0.34 | 0.88 | inactive |
| Or11h6 (GeneID 258296) | no change with or without drug | -0.11 | 0.67 | -0.45 | 0.93 | inactive |

No new results follow: 4 of the entries above.
| gene knocked down | combined z-score class | viability z-score with doxorubicin | viability z-score without drug | z-score of drug to no-drug ratio | doxorubicin viability vs non-targeting | Call |
| --- | --- | --- | --- | --- | --- | --- |
| Sult1c1 (GeneID 20888) | no change with or without drug | -0.22 | -1.01 | 0.56 | 0.92 | inactive |
| Lrrtm1 (GeneID 74342) | no change with or without drug | -0.11 | -0.34 | 0.22 | 0.93 | inactive |
| Eml4 (GeneID 78798) | no change with or without drug | 1.35 | 1.69 | 0.34 | 1.06 | inactive |
| Arrdc1 (GeneID 215705) | no change with or without drug | -0.9 | 0.34 | -1.01 | 0.86 | inactive |

Further entries:
| gene knocked down | combined z-score class | viability z-score with doxorubicin | viability z-score without drug | z-score of drug to no-drug ratio | doxorubicin viability vs non-targeting | Call |
| --- | --- | --- | --- | --- | --- | --- |
| Psma4 (GeneID 26441) | low cell count with and without drug | -4.27 | -3.04 | -2.81 | 0.56 | inactive |
| Mtres1 (GeneID 67851) | high cell count with doxorubicin only | 2.7 | 1.52 | 1.69 | 1.18 | inactive |
| Or5d47 (GeneID 117005) | no change with or without drug | 1.01 | 0.17 | 1.01 | 1.03 | inactive |
| Tor1aip1 (GeneID 208263) | no change with or without drug | -1.91 | -1.85 | -0.67 | 0.77 | inactive |
| Tcl1b5 (GeneID 27382) | no change with or without drug | -0.11 | -0.17 | 0.11 | 0.93 | inactive |
| Or5g29 (GeneID 258428) | no change with or without drug | -1.24 | 0.34 | -1.35 | 0.83 | inactive |
| Pcdhb6 (GeneID 93877) | no change with or without drug | -1.91 | -1.01 | -1.24 | 0.77 | inactive |
| Phb1 (GeneID 18673) | low cell count with doxorubicin only | -2.14 | -1.85 | -1.01 | 0.75 | active |
| Orai3 (GeneID 269999) | no change with or without drug | -0.22 | 0.51 | -0.45 | 0.92 | inactive |
| Actl6a (GeneID 56456) | no change with or without drug | 0.79 | 0.17 | 0.79 | 1.01 | inactive |
| Actl6a (GeneID 56456) | no change with or without drug | 1.01 | 0.51 | 0.79 | 1.03 | inactive |
| Or6c2b (GeneID 257667) | no change with or without drug | -0.9 | 1.18 | -1.57 | 0.86 | inactive |
| Rpl7a (GeneID 27176) | low cell count with and without drug | -7.19 | -6.24 | -5.17 | 0.3 | inactive |
| Clk1 (GeneID 12747) | no change with or without drug | -0.22 | -0.67 | 0.34 | 0.92 | inactive |
| Kcnh2 (GeneID 16511) | no change with or without drug | 0.56 | 0.51 | 0.34 | 0.99 | inactive |
| Nf1 (GeneID 18015) | high cell count with doxorubicin only | 2.02 | 0.84 | 1.57 | 1.12 | inactive |
| Ahsg (GeneID 11625) | no change with or without drug | 0.56 | 0 | 0.67 | 0.99 | inactive |
| Hspa9 (GeneID 15526) | low cell count with and without drug | -3.6 | -3.2 | -1.8 | 0.62 | inactive |
| Or10s1 (GeneID 258853) | no change with or without drug | -0.9 | -0.51 | -0.56 | 0.86 | inactive |
| Eif3b (GeneID 27979) | low cell count with and without drug | -5.17 | -3.2 | -3.93 | 0.48 | inactive |
| Or13p3 (GeneID 258852) | no change with or without drug | -0.56 | 0.51 | -0.79 | 0.89 | inactive |
